Source: patent US20250230193A1 (CHUGAI SEIYAKU KABUSHIKI KAISHA, priority 2022, published 2025)

assay: general procedure: Fmoc solid-phase peptide synthesis; 2-chlorotrityl chloride resin; conditions: cyclisation step

| Substance | cyclisation yield [%] |
| --- | --- |
| (1S,7S,11R,13S,19S,22S,26S,29S,35S,37Z,47E)-19-cyclopentyl-7-[2-[3,5-difluoro-4-(trifluoromethyl)phenyl]ethyl]-11-ethoxy-N-ethyl-N,3,18,21,25,31,34-heptamethyl-29-[(1S)-1-methylpropyl]-2,5,8,14,17,20,24,27,30,33,55-undecaoxo-spiro[3,6,9,15,18,21,25,28,31,34,41-undecazapentacyclo[24.15.11.2^43,46.1^35,41.0^9,13]pentapentaconta-37,43(54),44,46(53),47-pentaene-16,1′-cyclobutane]-22-carboxamide | 3.9 |

same assay, conditions: whole synthesis

| Substance | isolated yield [%] |
| --- | --- |
| (1S,7S,11R,13S,19S,22S,26S,29S,35S,37Z)-19-cyclopentyl-7-[2-[3-methoxy-4-(trifluoromethyl)phenyl]ethyl]-3,3′,3′,18,21,25,31,34-octamethyl-29-[(1S)-1-methylpropyl]-11-propoxy-22-(pyrrolidine-1-carbonyl)spiro[3,6,9,15,18,21,25,28,31,34,41-undecazapentacyclo[24.15.9.2^43,46.1^35,41.0^9,13]tripentaconta-37,43(52),44,46(51)-tetraene-16,1′-cyclobutane]-2,5,8,14,17,20,24,27,30,33,53-undecone | 0.3 |
| (1S,7S,11R,13S,19S,22S,26S,29S,35S,37Z)-19-cyclopentyl-11-ethoxy-7-[2-[3-methoxy-4-(trifluoromethyl)phenyl]ethyl]-3,3′,3′,18,21,25,31,34-octamethyl-29-[(1S)-1-methylpropyl]-22-(piperidine-1-carbonyl)spiro[3,6,9,15,18,21,25,28,31,34,41-undecazapentacyclo[24.15.9.2^43,46.1^35,41.0^9,13]tripentaconta-37,43(52),44,46(51)-tetraene-16,1′-cyclobutane]-2,5,8,14,17,20,24,27,30,33,53-undecone | 0.6 |
| (1S,7S,11R,13S,19S,22S,26S,29S,35S,37Z)-19-cyclopentyl-11-ethoxy-7-[2-[3-methoxy-4-(trifluoromethyl)phenyl]ethyl]-3,3′,3′,18,21,25,31,34-octamethyl-29-[(1S)-1-methylpropyl]-22-(piperidine-1-carbonyl)spiro[3,6,9,15,18,21,25,28,31,34,41-undecazapentacyclo[24.15.10.2^43,46.1^35,41.0^9,13]tetrapentaconta-37,43(53),44,46(52)-tetraene-16,1′-cyclobutane]-2,5,8,14,17,20,24,27,30,33,54-undecone | 9.3 |
| (1S,7S,11R,13S,19S,22S,26S,29S,35S,37Z)-19-cyclopentyl-11-ethoxy-7-[2-[3-methoxy-4-(trifluoromethyl)phenyl]ethyl]-3,3′,3′,18,21,25,31,34-octamethyl-29-[(1S)-1-methylpropyl]-22-(pyrrolidine-1-carbonyl)spiro[3,6,9,15,18,21,25,28,31,34,41-undecazapentacyclo[24.15.10.2^43,46.1^35,41.0^9,13]tetrapentaconta-37,43(53),44,46(52)-tetraene-16,1′-cyclobutane]-2,5,8,14,17,20,24,27,30,33,54-undecone | 9.8 |
| (1S,7S,11R,13S,19S,22S,26S,29S,35S,37Z)-19-cyclopentyl-11-ethoxy-7-[2-[3-methoxy-4-(trifluoromethyl)phenyl]ethyl]-3,3′,3′,18,21,25,31,34-octamethyl-29-[(1S)-1-methylpropyl]-22-(pyrrolidine-1-carbonyl)spiro[3,6,9,15,18,21,25,28,31,34,41-undecazapentacyclo[24.15.11.2^43,46.1^35,41.0^9,13]pentapentaconta-37,43(54),44,46(53)-tetraene-16,1′-cyclobutane]-2,5,8,14,17,20,24,27,30,33,55-undecone | 15.4 |
| (1S,7S,11R,13S,19S,22S,26S,29S,35S,37Z)-19-cyclopentyl-11-ethoxy-7-[2-[3-methoxy-4-(trifluoromethyl)phenyl]ethyl]-3,18,21,25,31,34-hexamethyl-29-[(1S)-1-methylpropyl]-22-(piperidine-1-carbonyl)spiro[3,6,9,15,18,21,25,28,31,34,41-undecazapentacyclo[24.15.11.2^43,46.1^35,41.0^9,13]pentapentaconta-37,43(54),44,46(53)-tetraene-16,1′-cyclobutane]-2,5,8,14,17,20,24,27,30,33,55-undecone | 10.0 |
| (1S,7S,11R,13S,19S,22S,26S,29S,35S,37Z)-19-cyclopentyl-11-ethoxy-N-ethyl-7-[2-[3-methoxy-4-(trifluoromethyl)phenyl]ethyl]-N,3,3′,3′,18,21,25,31,34-nonamethyl-29-[(1S)-1-methylpropyl]-2,5,8,14,17,20,24,27,30,33,55-undecaoxo-spiro[3,6,9,15,18,21,25,28,31,34,41-undecazapentacyclo[24.15.11.2^43,46.1^35,41.0^9,13]pentapentaconta-37,43(54),44,46(53)-tetraene-16,1′-cyclobutane]-22-carboxamide | 7.6 |
| (1S,7S,11R,13S,19S,22S,26S,29S,35S,37Z,47E)-7-[2-(3,4-dichlorophenyl)ethyl]-11-ethoxy-19-(1-ethylpropyl)-3,18,21,25,31,34-hexamethyl-29-[(1S)-1-methylpropyl]-22-(pyrrolidine-1-carbonyl)spiro[3,6,9,15,18,21,25,28,31,34,41-undecazapentacyclo[24.15.11.2^43,46.1^35,41.0^9,13]pentapentaconta-37,43(54),44,46(53),47-pentaene-16,1′-cyclobutane]-2,5,8,14,17,20,24,27,30,33,55-undecone | 27.7 |
| (1S,7S,11R,13S,19S,22S,26S,29S,35S,37Z,47E)-7-[2-[3,5-difluoro-4-(trifluoromethyl)phenyl]ethyl]-11-ethoxy-19-(1-ethylpropyl)-3,3′,3′,18,21,25,31,34-octamethyl-29-[(1S)-1-methylpropyl]-22-(pyrrolidine-1-carbonyl)spiro[3,6,9,15,18,21,25,28,31,34,41-undecazapentacyclo[24.15.10.2^43,46.1^35,41.0^9,13]tetrapentaconta-37,43(53),44,46(52),47-pentaene-16,1′-cyclobutane]-2,5,8,14,17,20,24,27,30,33,54-undecone | 16.4 |
| (1S,7S,11R,13S,19S,22S,26S,29S,35S,37Z,47E)-19-cyclopentyl-7-[2-[3,5-difluoro-4-(trifluoromethyl)phenyl]ethyl]-11-ethoxy-3,3′,3′,18,21,25,31,34-octamethyl-29-[(1S)-1-methylpropyl]-22-(pyrrolidine-1-carbonyl)spiro[3,6,9,15,18,21,25,28,31,34,41-undecazapentacyclo[24.15.10.2^43,46.1^35,41.0^9,13]tetrapentaconta-37,43(53),44,46(52),47-pentaene-16,1′-cyclobutane]-2,5,8,14,17,20,24,27,30,33,54-undecone | 21.1 |
| (1S,7S,11R,13S,19S,22S,26S,29S,35S,37Z,47E)-19-cyclopentyl-7-[2-[3,5-difluoro-4-(trifluoromethyl)phenyl]ethyl]-11-ethoxy-N-ethyl-N,3,18,21,25,31,34-heptamethyl-29-[(1S)-1-methylpropyl]-2,5,8,14,17,20,24,27,30,33,55-undecaoxo-spiro[3,6,9,15,18,21,25,28,31,34,41-undecazapentacyclo[24.15.11.2^43,46.1^35,41.0^9,13]pentapentaconta-37,43(54),44,46(53),47-pentaene-16,1′-cyclobutane]-22-carboxamide | 3.9 |
| (1S,7S,11R,13S,19S,22S,26S,29S,35S,37Z,47E)-19-cyclopentyl-11-ethoxy-N-ethyl-7-[2-[3-methoxy-4-(trifluoromethyl)phenyl]ethyl]-N,3,3′,3′,18,21,25,31,34-nonamethyl-29-[(1S)-1-methylpropyl]-2,5,8,14,17,20,24,27,30,33,55-undecaoxo-spiro[3,6,9,15,18,21,25,28,31,34,41-undecazapentacyclo[24.15.11.2^43,46.1^35,41.0^9,13]pentapentaconta-37,43(54),44,46(53),47-pentaene-16,1′-cyclobutane]-22-carboxamide | 4.3 |
| (1S,7S,11R,13S,19S,22S,26S,29S,35S,37Z,47E)-19-cyclopentyl-31-cyclopropyl-7-[2-[3,5-difluoro-4-(trifluoromethyl)phenyl]ethyl]-11-ethoxy-3,3′,3′,18,21,25,34-heptamethyl-29-[(1S)-1-methylpropyl]-22-(pyrrolidine-1-carbonyl)spiro[3,6,9,15,18,21,25,28,31,34,41-undecazapentacyclo[24.15.10.2^43,46.1^35,41.0^9,13]tetrapentaconta-37,43(53),44,46(52),47-pentaene-16,1′-cyclobutane]-2,5,8,14,17,20,24,27,30,33,54-undecone | 23.8 |
| (1S,7S,11R,13S,19S,22S,26S,29S,35S,37Z,47E)-31-cyclopropyl-7-[2-[3,5-difluoro-4-(trifluoromethyl)phenyl]ethyl]-11-ethoxy-19-(1-ethylpropyl)-3,18,21,25,34-pentamethyl-29-[(1S)-1-methylpropyl]-22-(pyrrolidine-1-carbonyl)spiro[3,6,9,15,18,21,25,28,31,34,41-undecazapentacyclo[24.15.10.2^43,46.1^35,41.0^9,13]tetrapentaconta-37,43(53),44,46(52),47-pentaene-16,1′-cyclobutane]-2,5,8,14,17,20,24,27,30,33,54-undecone | 31.2 |
